In this data set the target is T1, Elk-1 (Homo sapiens) (UniProt P19419).
T1 sequence (looked up, limits assumed): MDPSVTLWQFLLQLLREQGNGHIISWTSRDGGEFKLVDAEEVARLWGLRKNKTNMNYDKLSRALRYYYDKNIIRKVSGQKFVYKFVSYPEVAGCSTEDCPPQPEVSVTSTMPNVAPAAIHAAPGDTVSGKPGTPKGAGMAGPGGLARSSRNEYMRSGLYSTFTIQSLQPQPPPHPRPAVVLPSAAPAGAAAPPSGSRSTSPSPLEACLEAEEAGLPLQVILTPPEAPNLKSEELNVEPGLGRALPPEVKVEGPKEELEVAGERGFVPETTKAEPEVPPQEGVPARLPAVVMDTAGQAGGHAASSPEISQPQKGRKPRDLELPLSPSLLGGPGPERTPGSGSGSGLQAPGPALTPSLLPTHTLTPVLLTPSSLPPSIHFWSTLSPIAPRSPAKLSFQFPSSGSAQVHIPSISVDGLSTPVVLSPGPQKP
In words: EMSA. The settings on record: less binding than A allele probe; same buffer; purified recombinant protein; protein details: recombinant human Elk-1, Sigma Aldrich; variant of GRIN2B promoter rs3764030 A allele probe. On the technique in general: Mobility shift assays separate free from complexed probe on a gel.

The comparison behind a weaker result is the experiment's own reference, which may not be listed here. Where a protein sequence is shown, tags need not be part of it.

For “CATCTCCGGGGGACACGCGAA (double strand) [GRIN2B promoter rs3764030 G allele probe]”, the binding result was “binds more weakly”.

The record behind these values is patent publication US20170349943, “METHODS FOR DETECTING ENHANCED NMDA RECEPTOR FUNCTION AND USES THEREOF” (INOVA HEALTH SYSTEM, published 2017).
